Measurements reported in paper PMC3327665.

B1: MAP6 neuronal isoform E-STOP (80 kDa), endogenous (protein, UniProt Q7TSJ2-2 1-568)
chain: MAWPCITRACCIARFWNQLDKADIAVPLVFTKYSEATEHPGAPPQPPAPLQPALAPPSRAVAIETQPAQGESDAVARATGPAPGPSVDRETVAAPGRSGLGLGAASASTSGSGPADSVMRQDYRAWKVQRPEPSCRPRSEYQPSDAPFERETQYQKDFRAWPLPRRGDHPWIPKPVQIPATSQPSQPVLGVPKRRPQSQERGPMQLSADARDPEGAGGAGVLAAGKASGVDQRDTRRKAGPAWMVTRNEGHEEKPLPPAQSQTQEGGPAAGKASGADQRDTRRKAGPAWMVTRSEGHEEKPLPPAQSQTQEGGPAAGKASGADQRDTRRKAGPAWMVTRTEGHEETPLPPAQSQTQEGGPAAGKASGADERDTRRKAGPAWMVRRSEGHEQTPAAHAQGTGPEGGKGRAVADALNRQIREEVASTVSSSYRNEFRAWTDIKPVKPIKAKPQYKPPDDKMVHETSYSAQFKGEANKPSAADNKAMDRRRIRSLYSEPFKECPKVEKPSVQSSKPKKTSTSHKPPRKAKDKQVVSGQAAKKKTTEGPSATKPDDKEQSKEMNNKLAEAKE
B2: purified N-STOP (His-tagged MAP6 neuronal isoform) (protein, UniProt Q63560-1 1-952)
chain: MAWPCITRACCIARFWNQLDKADIAVPLVFTKYSEATEHPGAPPQPPAPPQPGLAPPSRAVAIETQPAQGESDAVARATGPAPGPSGDRETAAAPGRSGLGLGAASGSTSGSGPADSVMRQDYRAWKVQRPEPSCRPRSEYQPSDAPFERETQYQKDFRAWPLPRRGDHPWIPKPVQIPATSQPSPPVLGMPKRRPQSQERGPIQLSADARDPEGAGGAGVPAAGKASGADQRDTRRKAGPAWMVTRTEGHEEKPLPPAQSQTQEGGPAAGKASGADQRDTRRKAGPAWMVTRTEGHEEKPLPPAQSQTQEGGPAAGKASGADQRDTRRKAGPAWMVTRTEGHEETPLPPAQSQTQEGGPAAGKASGADQRDTRRKAGPAWMVTRTEGHEETPLPPAQSQTQEGGPAAGKASGADERDTRRKAGPAWMVRRSEGHEQTTAAHAQGTGPEGGKGRAVADALNRQIREEVTSTVSSSYRNEFRAWTDIKPVKPIKAKPQYKPPDDKMVHETSYSAQFKGEASKPTTADNKVVDRRRIRSLYSEPFKESPKVEKPSVQSSKPKKTSTSQKPLRKAKDKQVASGQAAKKKTTESPSATKPDDKEQSKEMNNKLAEAKESRVKPTSDKNQGPVAKEPHKDQGPVAPGLPKGQGPAVQEPLKDQGPMVPGLPKDQAPVVPGSLKGQSPTAPGPPKDQGAVLLGPMKDLGPVAPASVKDQDHMASELLKNKDSVPLAPAKAQSPLLPEPLKNQSPVVPARAKDQSFPAPAPTPLKDPGPVIPEPEKDGAPMVPERRKDQNASIMASLKNEAPVASESVKNQGLGGPEPAKDTGTDLKGHGSVFVAPVKSQGPVVPEPTKGQDPIIPALAKDQGPILPEPPKNQGPPVVLGPIKNQDPVIPVPLKGQDPVVPAPTKDPGPTAPDPLKSQGPRGPQLPTVSPSPPVMIPTVPHAEYIEGSP
B3: purified E-STOP (His-tagged MAP6 neuronal isoform) (protein, UniProt Q63560-2 1-660)
chain: MAWPCITRACCIARFWNQLDKADIAVPLVFTKYSEATEHPGAPPQPPAPPQPGLAPPSRAVAIETQPAQGESDAVARATGPAPGPSGDRETAAAPGRSGLGLGAASGSTSGSGPADSVMRQDYRAWKVQRPEPSCRPRSEYQPSDAPFERETQYQKDFRAWPLPRRGDHPWIPKPVQIPATSQPSPPVLGMPKRRPQSQERGPIQLSADARDPEGAGGAGVPAAGKASGADQRDTRRKAGPAWMVTRTEGHEEKPLPPAQSQTQEGGPAAGKASGADQRDTRRKAGPAWMVTRTEGHEEKPLPPAQSQTQEGGPAAGKASGADQRDTRRKAGPAWMVTRTEGHEEKPLPPAQSQTQEGGPAAGKASGADQRDTRRKAGPAWMVTRTEGHEETPLPPAQSQTQEGGPAAGKASGADQRDTRRKAGPAWMVTRTEGHEETPLPPAQSQTQEGGPAAGKASGADERDTRRKAGPAWMVRRSEGHEQTTAAHAQGTGPEGGKGRAVADALNRQIREEVTSTVSSSYRNEFRAWTDIKPVKPIKAKPQYKPPDDKMVHETSYSAQFKGEASKPTTADNKVVDRRRIRSLYSEPFKESPKVEKPSVQSSKPKKTSTSQKPLRKAKDKQVASGQAAKKKTTESPSATKPDDKEQSKEMNNKLAEAKE
B4: MAP6 fibroblast isoform F-STOP (42 kDa), endogenous (protein, UniProt Q7TSJ2-3 1-306)
chain: MQLSADARDPEGAGGAGVLAAGKASGVDQRDTRRKAGPAWMVTRNEGHEEKPLPPAQSQTQEGGPAAGKASGADQRDTRRKAGPAWMVTRSEGHEEKPLPPAQSQTQEGGPAAGKASGADQRDTRRKAGPAWMVTRTEGHEETPLPPAQSQTQEGGPAAGKASGADERDTRRKAGPAWMVRRSEGHEQTPAAHAQGTGPEGGKGRAVADALNRQIREEVASTVSSSYRNEFRAWTDIKPVKPIKAKPQYKPPDDKMVHETSYSAQFKGEANKPSAADNKAMDRRRIRSLYSEPFKECPKEPGQTHQ
B5: purified F-STOP (His-tagged MAP6 fibroblast isoform) (protein, UniProt Q7TSJ2-3 1-306)
chain: MQLSADARDPEGAGGAGVLAAGKASGVDQRDTRRKAGPAWMVTRNEGHEEKPLPPAQSQTQEGGPAAGKASGADQRDTRRKAGPAWMVTRSEGHEEKPLPPAQSQTQEGGPAAGKASGADQRDTRRKAGPAWMVTRTEGHEETPLPPAQSQTQEGGPAAGKASGADERDTRRKAGPAWMVRRSEGHEQTPAAHAQGTGPEGGKGRAVADALNRQIREEVASTVSSSYRNEFRAWTDIKPVKPIKAKPQYKPPDDKMVHETSYSAQFKGEANKPSAADNKAMDRRRIRSLYSEPFKECPKEPGQTHQ

Tests used:
[1] = biological target: GST-Bmcc1s (mouse); assay: pull-down; GST-Bmcc1s or GST on glutathione-sepharose beads, adult mouse brain lysate or lysis buffer only; eluates probed by Western blot with polyclonal anti-MAP6 antibody 23N; only the target purified
[2] = biological target: GST-Bmcc1s (mouse); assay: pull-down; 10 µl glutathione-agarose beads with 2 µg GST-Bmcc1s or 4 µg GST and 1.5 µg of one purified STOP isoform; 2 h at 4°C in PEM buffer plus 50 mM KCl, 0.05% Triton-X100, 1 mM DTT; three washes; SDS-PAGE, Coomassie; both purified
[3] = biological target: GST-Bmcc1s (mouse); assay: condition: 1.5 µg F-STOP with 2 µg GST-Bmcc1s in 300 µl; pull-down; 10 µl glutathione-agarose beads with 2 µg GST-Bmcc1s or 4 µg GST and 1.5 µg of one purified STOP isoform; 2 h at 4°C in PEM buffer plus 50 mM KCl, 0.05% Triton-X100, 1 mM DTT; three washes; SDS-PAGE, Coomassie; both purified

Row | Binder | binding [1] | binding [2] | further results
1 | B1 | binds |  | 
2 | B2 |  | binds | 
3 | B3 |  | binds | 
4 | B4 | no binding |  | 
5 | B5 |  |  | binding [3]: no binding

No constants are given. Whether binding was seen depends on the method and setting. For some assays here: A result given as binding can be weak or reduced; the word gives no strength. For some assays here: Tags and fused reporters may be left off the sequences shown. For some assays here: In cells and extracts the contact can be indirect.
